6 compounds from patent US8399522B2, “3.2.1-bicyclo-octane compounds” (International Flavors & Fragrances Inc, priority 2010, dated 2013) can be followed below.

SMILES strings stand for the structures.

This series is described as follows: Odor description (fragrance notes).
Regarding `CC1=CCC2(C)CCC1C2` (stereo not drawn) [2,5-Dimethyl-bicyclo[3.2.1]oct-2-ene], the “odor notes as described” value is “green, terpineol, woody, and black pepper notes”.

Turning to `CC12CCC(C1)C1(C)OC1C2` (stereo not drawn) [Structure 1, 2,6-dimethyl-3-oxa-tricyclo[4.2.1.0*2,4*]nonane], the “odor notes as described” value is “camphor, woody, fresh, sweet, minty, and thujone-like notes”. Take `CC1C(=O)CC2(C)CCC1C2` (stereo not drawn) [Structure 2, 1,4-dimethyl-bicyclo[3.2.1]octan-3-one]: the “odor notes as described” value was “woody, fresh, minty, and menthol notes”.

For `C=CCC1(C)C(=O)CC2(C)CCC1C2` (stereo not drawn) [Structure 3, 4-allyl-1,4-dimethyl-bicyclo[3.2.1]octan-3-one], the “odor notes as described” value is “amber, fruity, dusty, and musty notes”. As for `CC1CC2(C)C3CCC(C)(C3)CC2O1` (stereo not drawn) [Structure 4, 2,4,8-trimethyl-5-oxa-tricyclo [6.2.1.0*2,6*]undecane], the “odor notes as described” value is “green, earthy, fruity, fresh, and woody notes”.

For the compound `CC1C2CCC(C)(C2)CC12OCCO2` (stereo not drawn) [Structure 5, 1,4-dimethyl-bicyclo[3.2.1]octan-3-dioxolane], the “odor notes as described” value is “fruity, fresh, and camphor notes”.
